Assay results taken from paper PMC12040169 (PLOS Biology, 2025).
Some of the results follow.

The compounds below were run on T1, CTL2-GFP (C. trachomatis L2/434/Bu, GFP-expressing). Settings: bulk GFP, single well; 28.5 h, 10 µM; inhibitor.
T1 construct: L2/434/Bu, GFP-expressing
Set-up: species or system HeLa; Intracellular C. trachomatis growth in HeLa cells, bulk GFP fluorescence relative to DMSO

Compound	% of control remaining [%]
CN(C)S(=O)(=O)N1CCN(C(=O)N(c2ccccc2)c2ccccc2)CC1 [CBK267466]	142.453
Nc1ncc(-c2cc(C(F)(F)F)cc(C(F)(F)F)c2)nc1-c1ccc(O)cc1 [CBK122503]	88.0823
COc1cc(/C=C/C(=O)O)ccc1OCC(=O)Nc1ccccc1 [CBK265695]	100
CCCCc1ccc(NC(=O)Nc2ccc3ccc(Cl)nc3n2)cc1 [CBK063259]	74.6006
CC(C)CCCC(C)NC(=O)COc1cc(C(=O)O)cc(C(=O)O)c1 (stereo not drawn) [CBK296646]	150.487
CCn1c(C)nc2cc(NC(=O)c3oc(C)nc3C)ccc21 [CBK281881]	130.46
Cc1ccc(NC(=O)N(CCC#N)C2CCCCC2)cc1 [CBK156381]	99.0999
NC(=O)CN1CC2(CCN(Cc3cccc4cccnc34)CC2)c2ccccc21 [CBK137021]	78.9176
COc1cc(Br)cc(C2NC(=O)c3cnc(SC)nc3N2)c1O (stereo not drawn) [CBK291179]	121.018
COc1ccc(C(=O)c2sc3nc(C)c(C)c(C)c3c2N)cc1OC [CBK074427]	113.176
COCCNc1nc(-c2ccc3[nH]ccc3c2)ccc1C(=O)N1CCN(C)CC1 [CBK105956]	128.021
CCc1nn(C)c2[nH]nc(NC(=O)Cc3csc(C)n3)c12 [CBK305538]	115.559
O=C(O)c1ccc(OCC(O)Cn2nnc3ccccc32)cc1 (stereo not drawn) [CBK286616]	114.205
O=C(c1ccco1)N1CCN(C2C3CCCC2CNC3)CC1 (stereo not drawn) [CBK284992]	136.731
Cc1oc2c(c1C(=O)NCC(=O)NCC(=O)O)CCCC2 [CBK264015]	100
O=C(CN1CCC(O)(c2ccccc2F)CC1)N1CCCCC1 [CBK281938]	102.853
COc1ccccc1-c1ccccc1CN(C)Cc1ccccc1N1CCOCC1 [CBK286000]	117.398
COc1ccc(C2(CNC(C)(C)CN)CCCC2)cc1OC [CBK008989]	123.674
O=C(COc1ccccc1[N+](=O)[O-])Nc1cc(C(=O)O)cc(C(=O)O)c1 [CBK263983]	124.77
COCCCNC(=O)Cn1c(-c2cccs2)cc2cccnc21 [CBK282559]	119.431

Compound	% of control remaining [%]
O=C(Cc1ccccc1)Nc1nnc(Cc2ccc3c(c2)OCCO3)o1 [CBK287661]	118.703
Cc1nn(C(C)C(=O)Nc2cc(C(F)(F)F)ccc2Cl)c(C)c1[N+](=O)[O-] (stereo not drawn) [CBK268697]	133.38
O=C(NC1CCCC1)c1ccc(=O)[nH]c1 [CBK058093]	116.373
COc1ccc(S(=O)(=O)NC(CCSC)c2nnc3ccccn23)cc1 (stereo not drawn) [CBK304402]	107.479
CCC(CN1CCCC1)NC(=O)C1CC(=O)Nc2ccccc21 (stereo not drawn) [CBK282757]	128.976
OCCN(CCO)c1ccccc1N(CCO)CCO [CBK009141]	131.938
CC(NC(=O)N(Cc1ccc(CN)cc1)Cc1ccc2ccccc2c1)c1cccc2ccccc12 (stereo not drawn) [CBK046092C]	72.5448
COc1ccc([N+](=O)[O-])c(Oc2ccccc2OCc2ccccc2)n1 [CBK002753]	71.18
Oc1nc2cccnc2cc1-c1ccc2c(c1)OCCCO2 [CBK081299]	174.494
CCc1nc2n(n1)CC(NC1CCCc3ccccc31)CC2 (stereo not drawn) [CBK304837]	88.9165
COc1ccc([N+](=O)[O-])cc1NC(=O)Nc1ccc(Cl)c(Cl)c1 [CBK267593]	125.991
O=S(=O)(c1ccc(-n2cnc(Cl)c2Cl)cc1)N1CCCN(Cc2csc(-c3ccccc3)n2)CC1 [CBK062790]	99.9508
Cc1ccc(Cl)cc1N(CC(=O)O)S(=O)(=O)c1ccccc1 [CBK262424]	126.794
O=C(O)c1cccc(CSc2nnc(-c3ccccc3)c(-c3ccccc3)n2)c1 [CBK269165]	119.43
O=C(CSc1nc2cccnc2[nH]1)Nc1cccc(F)c1 [CBK270113]	139.875
CCC(=O)N1CCC2(CCCC[C@H]3CN(C(C)=O)CC[C@H]3NC(=O)CNC2=O)CC1 [CBK292147]	113.755
Cc1onc(-c2ccccc2)c1CNC(=O)[C@@H]1CCCN1C [CBK144077]	105.974
Cn1c(N2CCC(C(=O)NC3CC3)CC2)nc2ccccc21 [CBK283940]	124.49
CC(=O)Nc1ccc(Oc2cc(C)nc(C3CCNCC3)c2)cc1 [CBK283468]	149.492

Grouped by structure, the entries above with a CF3 group (two)
Compound	% of control remaining [%]
Nc1ncc(-c2cc(C(F)(F)F)cc(C(F)(F)F)c2)nc1-c1ccc(O)cc1 [CBK122503]	88.0823
Cc1nn(C(C)C(=O)Nc2cc(C(F)(F)F)ccc2Cl)c(C)c1[N+](=O)[O-] (stereo not drawn) [CBK268697]	133.38
